Assay results: article doi:10.1101/2020.11.15.383513

How the values were obtained:
Test in all cases: affinity purification with mass spectrometry
[1] = target: actin (yeast, from total yeast cell extract) (S. cerevisiae (endogenous in yeast cell extract)) (UniProt P60010)
[2] = target: T1, bicyclic peptide A15 (F-/G-actin)
T1 sequence (peptide, FITC labeled (position not stated); bicyclic (circularized)): ACYRQWNKCENGWVRCG

[3] = target: T2, bicyclic peptide A18 (F-actin specific)
T2 sequence (peptide, FITC labeled (position not stated); bicyclic (circularized)): ACREGQVACMVRKFECG

[4] = target: actin (yeast, from total yeast cell extract) (S. cerevisiae (endogenous in yeast cell extract)) (UniProt P60010); remark: listed apart in the source

binding [1]: binds
Molecule: Las17 (from UniProt Q12446 1-633)

binding [2]: binds
binding [3]: binds
Molecule: actin (yeast, from total yeast cell extract) (from UniProt P60010 1-375)

binding [4]: binds
B1: Pan1 (protein, UniProt P32521 1-1480)
chain: MYNPYQQQGMGYQQQQQQQQQQPNGFYPQQQQGQSSNQPQGQPQPQQQMAFNQPQATGIGGMPQSFGNSFSSMPQQPQTGYNNNGNNGSVYGNGNFGQQPQQQQQQAKPQHTGYVPNSSMPMMNTTGTMPPPNPAQQPQLQSIQPQGTGYYQAANTANVHSVQPLQSQGTGYYVSTPNLISSNQTQQPLQAQGTGYYQSQPQQVPPPQQAQSLQPLKPQQTGFYLQPQNQAPLEPLKPTATGFVNSFANNGLNNDIKIPAIRLSFITAQDQAKFETLFRSIVTNGSNTVSGANCRKILMRSGLPPSQLARIWTLCDTSKAGELLFPEFALAMHLINDVLQGDTIPYELDSKTKNEVSSFIDAINLSIANQDSSANDAPKTPFDEFITAGVQNLQPQPTGYMPQTSFGIPLQSQITGGGVASALNPQSTGFMAPTTFNMSMNTGTPGLNPQITGGAPASMQPNITGNALQPQTTGMMPQTTGMMPQTTGMMPQTSFGVNLGPQLTGGALQSQYTGGYGSVMPQQSGPASMPNLSFNQQGLQSQLTGLQPQPTGFLPPSNFSATMPLTAQKTGFGNNEIYTKSNFNNNLIDNSSQDKISTEEKSLFYKIFETFDTQNKGLLDSPTAVEIFRKSGLNRADLEQIWNLCDINNTGQLNKQEFALGMHLVYGKLNGKPIPNVLPSSLIPSSTKLLDNLKNQLKTEPTTTKEKPSFGKIDALSYKNNDDDVLPNYRNRRKVYSAKNEEQSSFSSPSAKSVNHSSSTLQTDDISVDKTVEKKTAKPKYAGFSREINLKNIASLENEIKNISNPENCYDSSIPSDLTSRFDAIIAKLPNLFNEISTIDNEITNAKIQLYRKKNPSSIIGSGPNGEITENDRKKAKSRALLRARMSALTGKSTESEDSLSMEDEQQSAEIKRIQQENGKNQEIIKDIRSSISDISASLKSTMTGSNMISNQEFERWEFGIGLEDGVREFLDDLKSNSNKSVTESSPFVPSSTPTPVDDRSSSPSYSQFKTAEERAAYLKEQAKKRMKEKLAKFDKNRRNVTQSSRSISSENSREQPQQIAGSSNLVEPRATPFQEEKYVEVAQPTQPVQSTQPVQPTQPVQPTQPVQPTQPVQPTQPVQPTQPVQNVYNAKQESDDEDEDDEEKRLQEELKRLKLKKKADKEKRLAALRKQIEDAQNESDEEETNGKDNFGGHVNVPQAAPVAPSAAFSQNSTNAPRSVHAAVTPAAGKNSTGLPSTTMGHNPYFKDASASSTSTFDARAAEMQRRIQRGLDEDEDDGWSDEDESNNRVAVDNKVEEAKIGHPDHARAPPVTAAPLPSVTPVPPAVPVPQANTSNEKSSPIPIAPIPPSVTQEPPVPLAPPLPAVDGFQEPPIPSAPAIATAVQKSGSSTPALAGGVLPPPPPLPTQQASTSEPIIAHVDNYNGAEKGTGAYGSDSDDDVLSIPESVGTDEEEEGAQPVSTAGIPSIPPAGIPPPPPLP

binding [4]: binds
B2: Sla2 (protein, UniProt P33338 1-968)
chain: MSRIDSDLQKALKKACSVEETAPKRKHVRACIVYTWDHQSSKAVFTTLKTLPLANDEVQLFKMLIVLHKIIQEGHPSALAEAIRDRDWIRSLGRVHSGGSSYSKLIREYVRYLVLKLDFHAHHRGFNNGTFEYEEYVSLVSVSDPDEGYETILDLMSLQDSLDEFSQIIFASIQSERRNTECKISALIPLIAESYGIYKFITSMLRAMHRQLNDAEGDAALQPLKERYELQHARLFEFYADCSSVKYLTTLVTIPKLPVDAPDVFLINDVDESKEIKFKKREPSVTPARTPARTPTPTPPVVAEPAISPRPVSQRTTSTPTGYLQTMPTGATTGMMIPTATGAANAIFPQATAQMQPDFWANQQAQFANEQNRLEQERVQQLQQQQAQQELFQQQLQKAQQDMMNMQLQQQNQHQNDLIALTNQYEKDQALLQQYDQRVQQLESEITTMDSTASKQLANKDEQLTALQDQLDVWERKYESLAKLYSQLRQEHLNLLPRFKKLQLKVNSAQESIQKKEQLEHKLKQKDLQMAELVKDRDRARLELERSINNAEADSAAATAAAETMTQDKMNPILDAILESGINTIQESVYNLDSPLSWSGPLTPPTFLLSLLESTSENATEFATSFNNLIVDGLAHGDQTEVIHCVSDFSTSMATLVTNSKAYAVTTLPQEQSDQILTLVKRCAREAQYFFEDLMSENLNQVGDEEKTDIVINANVDMQEKLQELSLAIEPLLNIQSVKSNKETNPHSELVATADKIVKSSEHLRVDVPKPLLSLALMIIDAVVALVKAAIQCQNEIATTTSIPLNQFYLKNSRWTEGLISAAKAVAGATNVLITTASKLITSEDNENTSPEQFIVASKEVAASTIQLVAASRVKTSIHSKAQDKLEHCSKDVTDACRSLGNHVMGMIEDDHSTSQQQQPLDFTSEHTLKTAEMEQQVEILKLEQSLSNARKRLGEIRRHAYYNQDDD

Where two headings read alike, the source gives them in different places. These are yes or no findings as the source states them, for the method shown. Binding seen in cells or lysates may run through a third protein. A yes stands for co-enrichment or nearness to the bait. Other partners may have been found. One block for each molecule: values may come before it.
